These are yes or no findings as the source states them, for the method shown. Some results given as binding are weak or reduced against the parent protein; the word gives no strength. Sequences can lack the tags named with a protein.
Key:
[1] = biological target: T1, GLD-3S (yeast two-hybrid fusion) (C. elegans) (UniProt Q95ZK7); test: two-hybrid; yeast; protein pairs fused to the LexA DNA binding domain and the Gal4 transcriptional activation domain; beta-galactosidase activities in arbitrary units
T1 sequence: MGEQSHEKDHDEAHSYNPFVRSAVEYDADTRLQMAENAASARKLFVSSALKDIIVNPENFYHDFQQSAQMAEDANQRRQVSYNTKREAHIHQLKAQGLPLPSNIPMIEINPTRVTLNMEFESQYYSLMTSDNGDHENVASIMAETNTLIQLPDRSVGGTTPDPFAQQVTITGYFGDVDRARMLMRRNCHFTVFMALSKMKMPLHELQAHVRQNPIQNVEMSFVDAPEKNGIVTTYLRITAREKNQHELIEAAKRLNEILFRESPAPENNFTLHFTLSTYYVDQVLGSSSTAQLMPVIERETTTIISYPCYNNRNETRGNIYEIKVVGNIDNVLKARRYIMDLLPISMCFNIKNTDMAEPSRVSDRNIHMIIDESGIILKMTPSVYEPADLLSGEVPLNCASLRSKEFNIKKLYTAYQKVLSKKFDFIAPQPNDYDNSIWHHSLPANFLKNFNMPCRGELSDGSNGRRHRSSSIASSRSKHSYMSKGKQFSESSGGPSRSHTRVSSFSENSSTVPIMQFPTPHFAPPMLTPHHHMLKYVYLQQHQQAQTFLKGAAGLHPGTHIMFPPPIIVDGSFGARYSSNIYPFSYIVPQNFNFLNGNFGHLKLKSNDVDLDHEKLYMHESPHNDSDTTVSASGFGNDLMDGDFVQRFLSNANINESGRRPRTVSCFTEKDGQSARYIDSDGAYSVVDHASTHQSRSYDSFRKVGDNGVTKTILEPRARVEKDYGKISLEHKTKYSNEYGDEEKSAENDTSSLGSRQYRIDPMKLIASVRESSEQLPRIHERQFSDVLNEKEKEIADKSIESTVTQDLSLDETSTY

[2] = biological target: T2, GLD-3L (yeast two-hybrid fusion) (C. elegans) (UniProt Q95ZK7); test: as above
T2 sequence: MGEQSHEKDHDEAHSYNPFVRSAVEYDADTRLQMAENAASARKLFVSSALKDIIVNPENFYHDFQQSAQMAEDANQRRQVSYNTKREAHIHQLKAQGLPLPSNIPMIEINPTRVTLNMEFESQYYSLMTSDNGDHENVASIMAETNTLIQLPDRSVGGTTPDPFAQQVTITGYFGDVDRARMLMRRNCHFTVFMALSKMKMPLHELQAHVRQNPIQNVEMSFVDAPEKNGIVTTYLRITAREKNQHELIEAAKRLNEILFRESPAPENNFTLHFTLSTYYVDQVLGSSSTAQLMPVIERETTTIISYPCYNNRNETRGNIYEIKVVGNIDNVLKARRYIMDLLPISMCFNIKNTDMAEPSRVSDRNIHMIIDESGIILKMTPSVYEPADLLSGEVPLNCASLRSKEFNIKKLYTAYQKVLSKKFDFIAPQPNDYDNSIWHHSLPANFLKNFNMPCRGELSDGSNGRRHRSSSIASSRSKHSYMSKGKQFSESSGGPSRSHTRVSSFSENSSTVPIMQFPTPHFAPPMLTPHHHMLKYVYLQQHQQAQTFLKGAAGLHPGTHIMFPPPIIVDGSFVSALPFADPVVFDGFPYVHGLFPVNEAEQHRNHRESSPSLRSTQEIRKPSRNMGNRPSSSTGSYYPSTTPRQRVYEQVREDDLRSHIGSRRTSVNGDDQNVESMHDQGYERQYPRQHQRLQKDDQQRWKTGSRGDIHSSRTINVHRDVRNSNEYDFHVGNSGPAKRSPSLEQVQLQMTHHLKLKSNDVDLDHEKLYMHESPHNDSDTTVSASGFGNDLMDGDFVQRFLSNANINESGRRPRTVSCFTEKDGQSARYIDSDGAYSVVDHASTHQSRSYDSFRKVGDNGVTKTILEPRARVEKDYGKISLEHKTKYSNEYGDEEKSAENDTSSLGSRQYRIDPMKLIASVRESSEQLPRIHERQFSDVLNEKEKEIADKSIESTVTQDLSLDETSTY

[3] = biological target: T3, GLD-3 (yeast two-hybrid fusion, isoform not stated) (C. elegans) (UniProt Q95ZK7); test: two-hybrid; directed yeast 2-hybrid binding-tests, data not shown
T3 sequence: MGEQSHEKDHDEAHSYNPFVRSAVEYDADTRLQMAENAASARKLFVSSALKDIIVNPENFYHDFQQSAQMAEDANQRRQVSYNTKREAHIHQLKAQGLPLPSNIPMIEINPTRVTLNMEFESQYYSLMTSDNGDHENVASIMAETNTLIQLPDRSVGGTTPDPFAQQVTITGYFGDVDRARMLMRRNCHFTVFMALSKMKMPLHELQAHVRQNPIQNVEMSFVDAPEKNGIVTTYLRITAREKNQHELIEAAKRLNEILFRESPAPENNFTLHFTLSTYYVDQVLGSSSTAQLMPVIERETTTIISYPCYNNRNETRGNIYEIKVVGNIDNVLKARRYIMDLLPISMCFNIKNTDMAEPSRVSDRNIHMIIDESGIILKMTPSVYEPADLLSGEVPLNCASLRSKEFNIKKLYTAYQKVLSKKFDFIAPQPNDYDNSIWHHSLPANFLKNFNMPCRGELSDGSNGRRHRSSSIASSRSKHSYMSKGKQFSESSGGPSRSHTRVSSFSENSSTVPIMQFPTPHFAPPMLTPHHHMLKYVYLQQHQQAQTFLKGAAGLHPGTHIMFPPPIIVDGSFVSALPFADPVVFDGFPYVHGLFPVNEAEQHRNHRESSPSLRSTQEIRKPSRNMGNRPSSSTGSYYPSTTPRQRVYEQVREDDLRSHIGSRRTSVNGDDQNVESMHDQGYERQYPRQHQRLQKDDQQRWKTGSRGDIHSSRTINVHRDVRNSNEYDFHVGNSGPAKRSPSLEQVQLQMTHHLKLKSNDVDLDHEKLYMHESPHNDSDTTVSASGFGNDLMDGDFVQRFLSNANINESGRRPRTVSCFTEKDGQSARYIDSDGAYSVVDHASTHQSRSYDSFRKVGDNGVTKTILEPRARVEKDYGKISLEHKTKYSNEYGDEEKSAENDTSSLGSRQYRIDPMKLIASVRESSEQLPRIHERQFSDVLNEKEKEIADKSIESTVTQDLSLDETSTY

Measured: binding

B1: GLS-1 (yeast two-hybrid fusion) (protein, UniProt Q8I4M5 1-1052)
chain: MRCLISYLFHSFLIFLKFIRSDVTALTLQEKRKKSRLTGILMKSMANKKNHQQKKSTDGSTMNGNNATATAAATTQNSSQIGQNSNSSHSVTNDNTSSNNASTSTSSITSTTTTTTTVPSSQQSQSQNQYSHQRLSSTSSTSQQTGISKFPAKKAGHNELEKTSNTANSQSGAFKGTTNKDRPKEKEKNTHSGNRQSQVNHNHHHSNHVSGNQQNRKNKNRDHSNQSYRGGYTHNHNNYHSLENAKSSGFLSNSSLSSAGQISASSAPPVSTTPTAIPIFQESKIVQTDPPVEEAKKKKEKPKIKRDEEPMPYKSTDPKNMDSVMAFKEHDEWDKVEFMCELVSFLSPTDLRLLGNCIEGSVRCYNNQMRPVEKTSNCSDPTAGLPQFVCSPPPPPQQVYYFPGIADAALYQTRNAVNSVFVQQHPPGLPPLLGGMQNIMYPPDANFHHSTSCTTPSSSVSVANKDVNNVPVVLSSSVNGISNNIPSDRQQLDSKPNTARGSSGNINQSNTTSPEPEPGSNHISTTAANPAHPTSVTVPQSVPPVPQEPELFLKSVLDLTSYIYTLMAVCSSTNRKSAAKISDYVQNVILREKSQILERIPDELDKITVLQEIGKIVAAMTHHPAITLDDKMKYAALRDGLRAQIETLFRQYYTTQKQLEQSNLVVPSSQAVGDENDTDSDHESEEEFEPLSGVMGSRFESNPVQPSPSVPGTFFIIRFIGRQIEKNDNLFSLEIHWSDGDRTFAQRSRDQLKALQHRLLDEFGQQRSEKYLHQGCTTSYSSFDDDNKKLSASTSTMETFAPNGERIVPRLARDATPAQYVQYINELSDLPARMMLSAVICEEFNGTRAKTEDLLQETREASDGLIYSRWKNPRAKSPVRYFKRNATGSIDPIELPVNMQPFLYSNIPQTQVQTLFPSCSNCGGPHAPKHCEKQTLLSKKGDHRTRSDGEGSQQNGGTSSSNSYAPIHANLPHAVYIENPQAMLGSNHFNHHQQQHIIQNTIFHNGGQFRANGTYEPQIPIAYYHAQGTVQNSNNTGGVNGNSGGGNQNSNF
binds: all assays above

Source: publication PMC2679207, “GLS-1, a Novel P Granule Component, Modulates a Network of Conserved RNA Regulators to Influence Germ Cell Fate Decisions” (PLoS Genetics, 2009)
